Consider 1 molecule from article PMC7816512.

Results are given in words; binding and its absence hold for the method and conditions named. In cells and extracts the contact can be indirect. Some results given as binding are weak or reduced against the parent protein; the word gives no strength. Sequences can lack the tags named with a protein.

This assay deals with T1, Rbm10-TAP (S. pombe) (UniProt P87143).
T1 sequence: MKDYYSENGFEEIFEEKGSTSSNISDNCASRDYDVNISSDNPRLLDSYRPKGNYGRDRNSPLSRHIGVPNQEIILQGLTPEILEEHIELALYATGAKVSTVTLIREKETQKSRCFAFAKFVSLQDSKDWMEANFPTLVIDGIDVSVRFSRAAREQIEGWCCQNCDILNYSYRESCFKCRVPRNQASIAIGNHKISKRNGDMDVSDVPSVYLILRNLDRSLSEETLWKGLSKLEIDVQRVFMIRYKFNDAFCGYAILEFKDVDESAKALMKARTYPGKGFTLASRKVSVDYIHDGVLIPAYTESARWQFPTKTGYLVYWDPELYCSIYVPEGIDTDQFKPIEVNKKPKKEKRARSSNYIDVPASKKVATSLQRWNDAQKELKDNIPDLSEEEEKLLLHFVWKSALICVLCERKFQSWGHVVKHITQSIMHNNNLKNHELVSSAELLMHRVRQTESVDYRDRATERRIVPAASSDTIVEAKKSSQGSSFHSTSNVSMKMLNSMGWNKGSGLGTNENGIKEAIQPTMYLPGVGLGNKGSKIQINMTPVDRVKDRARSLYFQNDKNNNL
The assay is described as follows: co-IP; lysates of S. pombe cells expressing Alp13-GFP and Rbm10-TAP from their own promoters; IgG sepharose, 4 °C, 2 h; Western blot with anti-GFP; cells with Alp13-GFP alone as control.

B1: Alp13-GFP (protein, UniProt O13953 1-337)
chain: MAVSYKVNERVLCFHGPLLYEAKIVDTEMKGDVTTYLIHYKGWKNSWDEWVEQDRILQWTEENLKTQKELKNAAISTRQKPTSKKSASSTSKHDSTGVKTSGKRSRESSTVTVDGDSHELPSRIKTQKSESPIPQQVKRDGTTDAKNEETTKPENNEKDDFEEEPPLPKHKISVPDVLKLWLVDDWENITKNQQLIAIPRNPTVRAAIAAFRESKISHLNNEIDVDVFEQAMAGLVIYFNKCLGNMLLYRFERQQYLEIRQQYPDTEMCDLYGVEHLIRLFVSLPELIDRTNMDSQSIECLLNYIEEFLKYLVLHKDEYFIKEYQNAPPNYRSLVGV
Take B1: the binding entry is reported as “binds”.
